Source: publication PMC6351106
Results are given in words; binding and its absence hold for the method and conditions named. Binding seen in cells or lysates may run through a third protein. Some binding calls cover weakened binding; strength is not graded here. For part of these data: Where a sequence is shown, tags or fusion partners need not be part of it.

Key:
[1] = target: Streptag-FLAG-tagged SEC23B(S186D) (human) (UniProt Q15437); test: co-IP; affinity purification of Streptag-tagged bait on Streptactin beads from transfected HEK293T extracts (50 mM Tris pH 7.4, 150 mM NaCl, 2 mM EDTA, 10% glycerol, 0.5% NP-40; 2 h at 4 C), immunoblotting; in some panels MLN4924 for 4 h, EBSS starvation or co-expressed ULK1
[2] = target: Streptag-FLAG-tagged SEC23B (human) (UniProt Q15437); test: as above
[3] = target: Streptag-FLAG-tagged SEC23B(S186A) (human) (UniProt Q15437); test: as above
[4] = target: Streptag-FLAG-tagged SEC23B (human) (UniProt Q15437); test: co-IP; immunoprecipitation with FLAG (FLAG-M2) beads from transfected HEK293T extracts, immunoblotting; Figure 1F untreated or MLN4924 for 4 h
[5] = target: Streptag-FLAG-tagged SEC23B(S186N) (human) (UniProt Q15437); test: as above
[6] = target: endogenous SEC23B (human (endogenous in HEK293T)) (UniProt Q15437); test: co-IP; competition: HEK293T co-transfected with SF-FBXW5 and increasing amounts of HA-tagged SEC24B; affinity purification with Streptactin beads, immunoblotting

| Binder | binding [1] | binding [2] | binding [3] | binding [4] | binding [5] | binding [6] |
| --- | --- | --- | --- | --- | --- | --- |
| endogenous SEC24A (protein, UniProt O95486 1-1093) MSQPGIPASGGAPASLQAQNGAALASGSPYTNGPVQNALLSSQESVSQGYNFQLPGSYPHPIPAKTLNPVSGQSNYGGSQGSGQTLNRPPVASNPVTPSLHSGPAPRMPLPASQNPATTPMPSSSFLPEANLPPPLNWQYNYPSTASQTNHCPRASSQPTVSGNTSLTTNHQYVSSGYPSLQNSFIKSGPSVPPLVNPPLPTTFQPGAPHGPPPAGGPPPVRALTPLTSSYRDVPQPLFNSAVNQEGITSNTNNGSMVVHSSYDEIEGGGLLATPQLTNKNPKMSRSVGYSYPSLPPGYQNTTPPGATGVPPSSLNYPSGPQAFTQTPLGANHLTTSMSGLSLQPEGLRVVNLLQERNMLPSTPLKPPVPNLHEDIQKLNCNPELFRCTLTSIPQTQALLNKAKLPLGLLLHPFKDLVQLPVVTSSTIVRCRSCRTYINPFVSFLDQRRWKCNLCYRVNDVPEEFLYNPLTRVYGEPHRRPEVQNATIEFMAPSEYMLRPPQPPVYLFVFDVSHNAVETGYLNSVCQSLLDNLDLLPGNTRTKIGFITFDSTIHFYGLQESLSQPQMLIVSDIEDVFIPMPENLLVNLNESKELVQDLLKTLPQMFTKTLETQSALGPALQAAFKLMSPTGGRMSVFQTQLPTLGVGALKPREEPNHRSSAKDIHMTPSTDFYKKLALDCSGQQVAVDLFLLSGQYSDLASLGCISRYSAGSVYYYPSYHHQHNPVQVQKLQKELQRYLTRKIGFEAVMRIRCTKGLSIHTFHGNFFVRSTDLLSLPNVNPDAGYAVQMSVEESLTDTQLVSFQSALLYTSSKGERRIRVHTLCLPVVSTLNDVFLGADVQAISGLLANMAVDRSMTASLSDARDALVNAVIDSLSAYRSSVLSNQQPGLMVPFSLRLFPLFVLALLKQKSFQTGTNARLDERIFAMCQVKNQPLVYLMLTTHPSLYRVDNLSDEGALNISDRTIPQPPILQLSVEKLSRDGAFLMDAGSVLMLWVGKNCTQNFLSQVLGVQNYASIPQPMTDLPELDTPESARIIAFISWLREQRPFFPILYVIRDESPMKANFLQNMIEDRTESALSYYEFLLHIQQQVNK | binds | binds | binds | binds | binds | – |
| HA-tagged SEC24B (protein, UniProt O95487 1-1268) MSAPAGSSHPAASARIPPKFGGAAVSGAAAPAGPGAGPAPHQQNGPAQNQMQVPSGYGLHHQNYIAPSGHYSQGPGKMTSLPLDTQCGDYYSALYTVPTQNVTPNTVNQQPGAQQLYSRGPPAPHIVGSTLGSFQGAASSASHLHTSASQPYSSFVNHYNSPAMYSASSSVASQGFPSTCGHYAMSTVSNAAYPSVSYPSLPAGDTYGQMFTSQNAPTVRPVKDNSFSGQNTAISHPSPLPPLPSQQHHQQQSLSGYSTLTWSSPGLPSTQDNLIRNHTGSLAVANNNPTITVADSLSCPVMQNVQPPKSSPVVSTVLSGSSGSSSTRTPPTANHPVEPVTSVTQPSELLQQKGVQYGEYVNNQASSAPTPLSSTSDDEEEEEEDEEAGVDSSSTTSSASPMPNSYDALEGGSYPDMLSSSASSPAPDPAPEPDPASAPAPASAPAPVVPQPSKMAKPFGYGYPTLQPGYQNATAPLISGVQPSNPVYSGFQQYPQQYPGVNQLSSSIGGLSLQSSPQPESLRPVNLTQERNILPMTPVWAPVPNLNADLKKLNCSPDSFRCTLTNIPQTQALLNKAKLPLGLLLHPFRDLTQLPVITSNTIVRCRSCRTYINPFVSFIDQRRWKCNLCYRVNDVPEEFMYNPLTRSYGEPHKRPEVQNSTVEFIASSDYMLRPPQPAVYLFVLDVSHNAVEAGYLTILCQSLLENLDKLPGDSRTRIGFMTFDSTIHFYNLQEGLSQPQMLIVSDIDDVFLPTPDSLLVNLYESKELIKDLLNALPNMFTNTRETHSALGPALQAAFKLMSPTGGRVSVFQTQLPSLGAGLLQSREDPNQRSSTKVVQHLGPATDFYKKLALDCSGQQTAVDLFLLSSQYSDLASLACMSKYSAGCIYYYPSFHYTHNPSQAEKLQKDLKRYLTRKIGFEAVMRIRCTKGLSMHTFHGNFFVRSTDLLSLANINPDAGFAVQLSIEESLTDTSLVCFQTALLYTSSKGERRIRVHTLCLPVVSSLADVYAGVDVQAAICLLANMAVDRSVSSSLSDARDALVNAVVDSLSAYGSTVSNLQHSALMAPSSLKLFPLYVLALLKQKAFRTGTSTRLDDRVYAMCQIKSQPLVHLMKMIHPNLYRIDRLTDEGAVHVNDRIVPQPPLQKLSAEKLTREGAFLMDCGSVFYIWVGKGCDNNFIEDVLGYTNFASIPQKMTHLPELDTLSSERARSFITWLRDSRPLSPILHIVKDESPAKAEFFQHLIEDRTEAAFSYYEFLLHVQQQICK | – | – | – | – | – | binds |

The remaining lines, values ahead:

| binding [1] | binding [2] | binding [3] | binding [4] | binding [5] | binding [6] | Binder |
| --- | --- | --- | --- | --- | --- | --- |
| binds | binds | binds | binds | binds | – | endogenous SEC24B (protein, UniProt O95487 1-1268) MSAPAGSSHPAASARIPPKFGGAAVSGAAAPAGPGAGPAPHQQNGPAQNQMQVPSGYGLHHQNYIAPSGHYSQGPGKMTSLPLDTQCGDYYSALYTVPTQNVTPNTVNQQPGAQQLYSRGPPAPHIVGSTLGSFQGAASSASHLHTSASQPYSSFVNHYNSPAMYSASSSVASQGFPSTCGHYAMSTVSNAAYPSVSYPSLPAGDTYGQMFTSQNAPTVRPVKDNSFSGQNTAISHPSPLPPLPSQQHHQQQSLSGYSTLTWSSPGLPSTQDNLIRNHTGSLAVANNNPTITVADSLSCPVMQNVQPPKSSPVVSTVLSGSSGSSSTRTPPTANHPVEPVTSVTQPSELLQQKGVQYGEYVNNQASSAPTPLSSTSDDEEEEEEDEEAGVDSSSTTSSASPMPNSYDALEGGSYPDMLSSSASSPAPDPAPEPDPASAPAPASAPAPVVPQPSKMAKPFGYGYPTLQPGYQNATAPLISGVQPSNPVYSGFQQYPQQYPGVNQLSSSIGGLSLQSSPQPESLRPVNLTQERNILPMTPVWAPVPNLNADLKKLNCSPDSFRCTLTNIPQTQALLNKAKLPLGLLLHPFRDLTQLPVITSNTIVRCRSCRTYINPFVSFIDQRRWKCNLCYRVNDVPEEFMYNPLTRSYGEPHKRPEVQNSTVEFIASSDYMLRPPQPAVYLFVLDVSHNAVEAGYLTILCQSLLENLDKLPGDSRTRIGFMTFDSTIHFYNLQEGLSQPQMLIVSDIDDVFLPTPDSLLVNLYESKELIKDLLNALPNMFTNTRETHSALGPALQAAFKLMSPTGGRVSVFQTQLPSLGAGLLQSREDPNQRSSTKVVQHLGPATDFYKKLALDCSGQQTAVDLFLLSSQYSDLASLACMSKYSAGCIYYYPSFHYTHNPSQAEKLQKDLKRYLTRKIGFEAVMRIRCTKGLSMHTFHGNFFVRSTDLLSLANINPDAGFAVQLSIEESLTDTSLVCFQTALLYTSSKGERRIRVHTLCLPVVSSLADVYAGVDVQAAICLLANMAVDRSVSSSLSDARDALVNAVVDSLSAYGSTVSNLQHSALMAPSSLKLFPLYVLALLKQKAFRTGTSTRLDDRVYAMCQIKSQPLVHLMKMIHPNLYRIDRLTDEGAVHVNDRIVPQPPLQKLSAEKLTREGAFLMDCGSVFYIWVGKGCDNNFIEDVLGYTNFASIPQKMTHLPELDTLSSERARSFITWLRDSRPLSPILHIVKDESPAKAEFFQHLIEDRTEAAFSYYEFLLHVQQQICK |
| binds | – | – | – | – | – | endogenous SEC31 (protein, UniProt O94979 1-1220) MKLKEVDRTAMQAWSPAQNHPIYLATGTSAQQLDATFSTNASLEIFELDLSDPSLDMKSCATFSSSHRYHKLIWGPYKMDSKGDVSGVLIAGGENGNIILYDPSKIIAGDKEVVIAQNDKHTGPVRALDVNIFQTNLVASGANESEIYIWDLNNFATPMTPGAKTQPPEDISCIAWNRQVQHILASASPSGRATVWDLRKNEPIIKVSDHSNRMHCSGLAWHPDVATQMVLASEDDRLPVIQMWDLRFASSPLRVLENHARGILAIAWSMADPELLLSCGKDAKILCSNPNTGEVLYELPTNTQWCFDIQWCPRNPAVLSAASFDGRISVYSIMGGSTDGLRQKQVDKLSSSFGNLDPFGTGQPLPPLQIPQQTAQHSIVLPLKKPPKWIRRPVGASFSFGGKLVTFENVRMPSHQGAEQQQQQHHVFISQVVTEKEFLSRSDQLQQAVQSQGFINYCQKKIDASQTEFEKNVWSFLKVNFEDDSRGKYLELLGYRKEDLGKKIALALNKVDGANVALKDSDQVAQSDGEESPAAEEQLLGEHIKEEKEESEFLPSSGGTFNISVSGDIDGLITQALLTGNFESAVDLCLHDNRMADAIILAIAGGQELLARTQKKYFAKSQSKITRLITAVVMKNWKEIVESCDLKNWREALAAVLTYAKPDEFSALCDLLGTRLENEGDSLLQTQACLCYICAGNVEKLVACWTKAQDGSHPLSLQDLIEKVVILRKAVQLTQAMDTSTVGVLLAAKMSQYANLLAAQGSIAAALAFLPDNTNQPNIMQLRDRLCRAQGEPVAGHESPKIPYEKQQLPKGRPGPVAGHHQMPRVQTQQYYPHGENPPPPGFIMHGNVNPNAAGQLPTSPGHMHTQVPPYPQPQPYQPAQPYPFGTGGSAMYRPQQPVAPPTSNAYPNTPYISSASSYTGQSQLYAAQHQASSPTSSPATSFPPPPSSGASFQHGGPGAPPSSSAYALPPGTTGTLPAASELPASQRTGPQNGWNDPPALNRVPKKKKMPENFMPPVPITSPIMNPLGDPQSQMLQQQPSAPVPLSSQSSFPQPHLPGGQPFHGVQQPLGQTGMPPSFSKPNIEGAPGAPIGNTFQHVQSLPTKKITKKPIPDEHLILKTTFEDLIQRCLSSATDPQTKRKLDDASKRLEFLYDKLREQTLSPTITSGLHNIARSIETRNYSEGLTMHTHIVSTSNFSETSAFMPVLKVVLTQANKLGV |
